Amino acid sequences for entries named in this document (tags omitted).
UniProt Q05397, whole entry: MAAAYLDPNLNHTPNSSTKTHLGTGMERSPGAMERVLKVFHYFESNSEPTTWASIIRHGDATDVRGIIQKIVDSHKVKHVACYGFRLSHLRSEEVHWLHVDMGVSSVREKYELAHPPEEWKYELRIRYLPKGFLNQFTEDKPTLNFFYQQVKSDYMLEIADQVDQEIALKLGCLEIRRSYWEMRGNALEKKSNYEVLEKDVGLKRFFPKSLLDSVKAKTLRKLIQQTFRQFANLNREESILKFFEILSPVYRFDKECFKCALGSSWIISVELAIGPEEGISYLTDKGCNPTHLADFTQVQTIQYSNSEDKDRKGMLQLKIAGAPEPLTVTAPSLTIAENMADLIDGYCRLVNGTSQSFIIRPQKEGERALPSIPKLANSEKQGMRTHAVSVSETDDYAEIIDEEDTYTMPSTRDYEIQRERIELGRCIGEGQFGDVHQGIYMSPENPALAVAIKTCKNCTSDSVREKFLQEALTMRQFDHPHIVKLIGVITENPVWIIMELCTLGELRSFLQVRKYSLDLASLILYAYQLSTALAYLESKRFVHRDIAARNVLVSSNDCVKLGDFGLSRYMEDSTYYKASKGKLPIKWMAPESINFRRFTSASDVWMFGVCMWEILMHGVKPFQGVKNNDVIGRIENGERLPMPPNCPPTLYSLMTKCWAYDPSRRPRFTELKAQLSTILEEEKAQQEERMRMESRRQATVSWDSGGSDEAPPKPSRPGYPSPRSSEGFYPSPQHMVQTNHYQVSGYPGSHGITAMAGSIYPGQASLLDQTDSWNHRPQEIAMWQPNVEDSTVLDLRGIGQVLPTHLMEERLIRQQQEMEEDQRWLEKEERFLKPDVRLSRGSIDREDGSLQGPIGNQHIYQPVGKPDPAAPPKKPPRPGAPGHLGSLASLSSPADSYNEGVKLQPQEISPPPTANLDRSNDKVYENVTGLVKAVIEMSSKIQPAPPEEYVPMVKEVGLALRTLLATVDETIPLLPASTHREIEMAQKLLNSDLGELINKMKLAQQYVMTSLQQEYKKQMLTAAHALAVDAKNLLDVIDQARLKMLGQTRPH

In US9133224B2, “Macrocyclic kinase inhibitors” (OSI Pharmaceuticals, LLC, priority 2010, dated 2015):

What was measured:
[1] = target: GST-tagged full-length FAK enzyme (PTK2) (Homo sapiens, UniProt Q05397); assay: Biochemical Omnia Assay (FAK); details: read-out: FAK Activity Biochemical OMNIA, [ATP] = 50uM, mean IC50
FAK = FAK (Homo sapiens, UniProt Q05397); assay: Cell-based capture ELISA for inhibition of FAK autophosphorylation [pY397] in U87MG cells
[2] = read-out: FAK Activity Mechanistic (U87MG) HP, 50% (v/v) human plasma, mean IC50
[3] = read-out: FAK Activity Mechanistic (U87MG) MP, 50% (v/v) mouse plasma, mean IC50
[4] = read-out: FAK Activity Mechanistic (U87MG) NP, no plasma present, mean IC50

Structure (SMILES) | IC50 [1] [µM] | IC50 (FAK; [2]) [µM] | IC50 (FAK; [3]) [µM] | IC50 (FAK; [4]) [µM]
CCOP1(=O)Cc2ccc(c(OC)c2)Nc2ncc(C(F)(F)F)c(n2)Nc2ccc(nc2C(=O)NC)-c2cn(nc2C)CCCO1 (stereo not drawn) | < 0.4 | < 0.4 | < 0.4 | < 0.4
CCOP1(=O)Cc2ccc(c(OC)c2)Nc2ncc(C(F)(F)F)c(n2)Nc2ccc(nc2C(=O)NC)-c2cnn(c2)CC2(COC2)CO1 (stereo not drawn) | < 0.4 | < 0.4 | < 0.4 | < 0.4
CCOP1(=O)Cc2ccc(c(OC)c2)Nc2ncc(C(F)(F)F)c(n2)Nc2ccc(nc2C(=O)NC)-c2cnn(c2)CCCO1 (stereo not drawn) | < 0.4 | < 0.4 | < 0.4 | < 0.4
CCOP1(=O)Cc2ccc(c(OC)c2Cl)Nc2ncc(C(F)(F)F)c(n2)Nc2ccc(nc2C(=O)NC)-c2cnn(c2)CCCO1 (stereo not drawn) | < 0.4 | 0.4 to 4 | < 0.4 | < 0.4
CCOP1(=O)Cc2ccc(cc2)Nc2ncc(C(F)(F)F)c(n2)Nc2ccc(nc2C(=O)NC)-c2cnn(c2)CC(C)CO1 (racemic) | < 0.4 | < 0.4 | < 0.4 | < 0.4
CCOP1(=O)Cc2ccc(c(OC)c2)Nc2ncc(C(F)(F)F)c(n2)Nc2ccc(nc2C(=O)NC)-c2cnn(c2)CC(C)(C)CO1 (single isomer, unassigned) | < 0.4 | < 0.4 | < 0.4 | < 0.4
CCOP1(=O)Cc2ccc(c(OC)c2Cl)Nc2ncc(C(F)(F)F)c(n2)Nc2ccc(nc2C(=O)NC)-c2cnn(c2)CC2(COC2)CO1 (single isomer, unassigned) [55A] | < 0.4 | 0.4 to 4 | 0.4 to 4 | < 0.4
CCCP1(=O)Cc2ccc(c(OC)c2)Nc2ncc(C(F)(F)F)c(n2)Nc2ccc(cc2C(=O)NC)-c2cnn(c2)CCCO1 (single isomer, unassigned) [66A] | < 0.4 | 0.4 to 4 | 0.4 to 4 | < 0.4
CNC(=O)c1nc2ccc1Nc1nc(ncc1C(F)(F)F)Nc1ccc(cc1OC)CP(C)(=O)OCC(C)(C)Cn1cc-2cn1 (single isomer, unassigned) [Example 62] | < 0.4 | < 0.4 | < 0.4 | < 0.4

Like-named read-outs stand apart in the source and are kept apart here. The structures given here were assigned with low confidence; some may be wrong.
